These are yes or no findings as the source states them, for the method shown. Binding seen in cells or lysates may run through a third protein. Some results given as binding are weak or reduced against the parent protein; the word gives no strength.

The chains behind the UniProt entries cited, without tags or fusion partners. Residues count along the entry.
UniProt Q9ULT6, residues 56-936: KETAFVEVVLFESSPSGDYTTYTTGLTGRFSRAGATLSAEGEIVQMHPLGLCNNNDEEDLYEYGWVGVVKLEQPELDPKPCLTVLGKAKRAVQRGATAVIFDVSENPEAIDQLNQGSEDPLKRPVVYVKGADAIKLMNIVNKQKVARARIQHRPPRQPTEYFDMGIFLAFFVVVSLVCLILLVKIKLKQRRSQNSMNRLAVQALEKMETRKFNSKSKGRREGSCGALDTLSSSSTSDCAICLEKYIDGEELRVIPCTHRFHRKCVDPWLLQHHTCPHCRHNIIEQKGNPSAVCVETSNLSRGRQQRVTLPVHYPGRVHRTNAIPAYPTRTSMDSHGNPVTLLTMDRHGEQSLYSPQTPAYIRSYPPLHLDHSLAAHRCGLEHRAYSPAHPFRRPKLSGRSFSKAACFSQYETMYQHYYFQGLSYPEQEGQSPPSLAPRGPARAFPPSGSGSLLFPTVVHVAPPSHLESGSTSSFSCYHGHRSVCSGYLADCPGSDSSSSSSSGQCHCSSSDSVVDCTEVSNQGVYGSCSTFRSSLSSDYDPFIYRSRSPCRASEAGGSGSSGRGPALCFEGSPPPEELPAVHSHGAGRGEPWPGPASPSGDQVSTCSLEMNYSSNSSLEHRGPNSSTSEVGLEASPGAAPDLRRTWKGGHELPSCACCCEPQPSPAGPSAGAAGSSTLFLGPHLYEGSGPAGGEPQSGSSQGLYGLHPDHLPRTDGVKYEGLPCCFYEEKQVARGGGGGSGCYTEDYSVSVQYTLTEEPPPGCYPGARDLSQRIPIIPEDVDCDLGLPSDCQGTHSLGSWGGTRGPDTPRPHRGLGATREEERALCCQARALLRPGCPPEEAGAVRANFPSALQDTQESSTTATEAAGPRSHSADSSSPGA

Assay [1] has as its target EGFR (transfected 293T cells) (UniProt P00533). The experiment in a line: co-IP; 293T cells co-transfected with EGFR and Myc-tagged ZNRF3 constructs; lysate amounts adjusted to comparable EGFR; EGFR IP followed by Myc-tag IB.
In assay [2] the target is EGFR (ectopically expressed in MDA-MB-231 cells) (UniProt P00533). In words: co-IP; lysates of MDA-MB-231 cells co-infected with lentivirus carrying EGFR and Myc-tagged ZNRF3/RNF43; anti-EGFR IP; NP-40 or RIPA lysis buffer, Protein G Sepharose, overnight at 4 °C.
Assay [3] deals with Myc-tagged ZNRF3 full-length (FL) (UniProt Q9ULT6). In words: co-IP; 293T cells co-transfected with EGFR and Myc-tagged ZNRF3 constructs; lysate amounts adjusted to comparable EGFR; Myc-tag IP followed by EGFR IB.

With “Myc-tagged ZNRF3 full-length (FL) (from UniProt Q9ULT6 56-936) (enzyme)”, in assay [1], the binding result is “binds”.
For “Myc-tagged ZNRF3 (MDA-MB-231) (from UniProt Q9ULT6 56-936) (enzyme)”, the binding result in assay [2] is on record as “binds”.
For the substance “EGFR (transfected 293T cells) (from UniProt P00533 25-1210) (receptor)”, the binding entry in assay [3] is “binds”.

The record behind these values is doi:10.1101/2024.01.10.574969.
